This data set relates to bone cell suspension, including osteoclasts and other cell types. The settings on record: FIG. 3; concentrations up to 10^−4M.

Data on one compound can be found in patent publication US20020002140A1, “Novel bisphosphonates and uses thereof” (priority 2000, published 2002).

SMILES strings stand for the structures.

Turning to `NCCCC(O)(P(=O)(O)O)P(=O)(O)O` [alendronate, (4-amino-1-hydroxybutylidene)-1,1-bisphosphonic acid, reference compound], the “toxicity (cell number)” value was “kills the majority of cells”.
